These are yes or no findings as the source states them, for the method shown. For part of these data: Binding can be weak; no strength is given.
Legend:
[1] = biological target: T1, CyaA'-HPF(1–106) (S. aureus) (UniProt Q2FIN9); test: two-hybrid; bacterial two-hybrid (BACTH): T25 and T18 fragments of B. pertussis Cya, coexpressed in E. coli Δcya; β-galactosidase activity and LB-X-Gal-IPTG agar after 24–30 h at 30 °C
T1 sequence: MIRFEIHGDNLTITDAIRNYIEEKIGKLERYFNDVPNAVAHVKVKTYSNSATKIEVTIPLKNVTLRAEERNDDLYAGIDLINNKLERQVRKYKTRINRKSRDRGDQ

T18-HPF (S. aureus) = biological target: T2, T18-HPF (S. aureus) (UniProt Q2FIN9); test: as above
T2 sequence: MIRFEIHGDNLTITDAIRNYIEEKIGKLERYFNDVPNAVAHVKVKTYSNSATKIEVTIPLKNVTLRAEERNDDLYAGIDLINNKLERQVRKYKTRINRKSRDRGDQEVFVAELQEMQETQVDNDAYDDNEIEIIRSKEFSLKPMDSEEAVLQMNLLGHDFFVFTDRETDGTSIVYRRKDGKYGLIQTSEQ

Substance | binding [1] | binding (T18-HPF (S. aureus))
T25-YwlG (S. aureus) | no binding | binds
YwlG(C69S) in the BACTH system (S. aureus) | – | binds

Source: article PMC9522360, “Bidirectional sequestration between a bacterial hibernation factor and a glutamate metabolizing protein” (Proceedings of the National Academy of Sciences of the …, 2022)
